## Cleaved PARP after 72 h of treatment

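Human melanoma cell lines in 1,536-well plates were treated with two drugs together for 72 h, then fixed, stained and imaged. The read-out is the fraction of cleaved-PARP-positive nuclei, in % of that fraction in the DMSO control; 200 means twice the control level of this apoptosis marker. Concentrations were fixed for each drug; these are the higher of two levels. No replicate spread is given; individual values may be noisy. The marker varies much from line to line, for technical or biological reasons.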
Only some of the drugs and lines screened are listed, without regard to their results.
A dash means that no value is listed here.

All values are for the listed drug together with gemcitabine (0.002 µM): Nc1ccn([C@@H]2O[C@H](CO)[C@@H](O)C2(F)F)c(=O)n1

Drugs:
U73122: COc1ccc2c(c1)CCC1C2CCC2(C)C(NCCCCCCN3C(=O)C=CC3=O)CCC12 (stereo unspecified) at 2 µM
palbociclib: CC(=O)c1c(C)c2cnc(Nc3ccc(N4CCNCC4)cn3)nc2n(C2CCCC2)c1=O at 0.2 µM
BI-D1870: CC(C)CCN1c2nc(Nc3cc(F)c(O)c(F)c3)ncc2N(C)C(=O)C1C (stereo unspecified) at 1 µM
bortezomib: CC(C)C[C@H](NC(=O)[C@H](Cc1ccccc1)NC(=O)c1cnccn1)B(O)O at 0.005 µM
NVP-BEZ235: Cn1c(=O)n(-c2ccc(C(C)(C)C#N)cc2)c2c3cc(-c4cnc5ccccc5c4)ccc3ncc21 at 0.02 µM
erlotinib: C#Cc1cccc(Nc2ncnc3cc(OCCOC)c(OCCOC)cc23)c1 at 4 µM
PLX4720: CCCS(=O)(=O)Nc1ccc(F)c(C(=O)c2c[nH]c3ncc(Cl)cc23)c1F at 0.4 µM
ABT-263: CC1(C)CCC(c2ccc(Cl)cc2)=C(CN2CCN(c3ccc(C(=O)NS(=O)(=O)c4ccc(N[C@H](CCN5CCOCC5)CSc5ccccc5)c(S(=O)(=O)C(F)(F)F)c4)cc3)CC2)C1 at 2 µM
lapatinib: CS(=O)(=O)CCNCc1ccc(-c2ccc3ncnc(Nc4ccc(OCc5cccc(F)c5)c(Cl)c4)c3c2)o1 at 4 µM
L-779450: Oc1cc(-c2nc(-c3ccccc3)[nH]c2-c2ccncc2)ccc1Cl at 1 µM
darinaparsin: C[As](C)SC[C@H](NC(=O)CC[C@H](N)C(=O)O)C(=O)NCC(=O)O at 2 µM
KU-0063794: COc1ccc(-c2ccc3c(N4CCOCC4)nc(N4C[C@@H](C)O[C@@H](C)C4)nc3n2)cc1CO at 0.1 µM
tamatinib: COc1cc(Nc2ncc(F)c(Nc3ccc4c(n3)NC(=O)C(C)(C)O4)n2)cc(OC)c1OC at 2 µM
PF-04217903: OCCn1cc(-c2cnc3nnn(Cc4ccc5ncccc5c4)c3n2)cn1 at 5 µM
decitabine: Nc1ncn([C@H]2C[C@H](O)[C@@H](CO)O2)c(=O)n1 at 0.5 µM
enzastaurin: Cn1cc(C2=C(c3cn(C4CCN(Cc5ccccn5)CC4)c4ccccc34)C(=O)NC2=O)c2ccccc21 at 4 µM
perifosine: CCCCCCCCCCCCCCCCCCOP(=O)([O-])OC1CC[N+](C)(C)CC1 at 2 µM
NVP-TAE684: COc1cc(N2CCC(N3CCN(C)CC3)CC2)ccc1Nc1ncc(Cl)c(Nc2ccccc2S(=O)(=O)C(C)C)n1 at 0.4 µM
GSK0660: COC(=O)c1sccc1S(=O)(=O)Nc1ccc(Nc2ccccc2)cc1OC at 5 µM
etoposide: COc1cc([C@@H]2c3cc4c(cc3[C@@H](O[C@@H]3O[C@@H]5CO[C@@H](C)O[C@H]5[C@H](O)[C@H]3O)[C@H]3COC(=O)[C@H]23)OCO4)cc(OC)c1O at 0.1 µM
vatalanib: Clc1ccc(Nc2nnc(Cc3ccncc3)c3ccccc23)cc1 at 10 µM
SNS-314: O=C(Nc1cccc(Cl)c1)Nc1ncc(CCNc2ncnc3ccsc23)s1 at 0.004 µM
KU-55933: O=c1cc(-c2cccc3c2Sc2ccccc2S3)oc(N2CCOCC2)c1 at 5 µM
vincristine: CC[C@]1(O)C[C@H]2CN(CCc3c([nH]c4ccccc34)[C@@](C(=O)OC)(c3cc4c(cc3OC)N(C=O)[C@H]3[C@@](O)(C(=O)OC)[C@H](OC(C)=O)[C@]5(CC)C=CCN6CC[C@]43[C@@H]65)C2)C1 at 0.0005 µM
everolimus: CO[C@H]1C[C@@H]2CC[C@@H](C)[C@@](O)(O2)C(=O)C(=O)N2CCCC[C@H]2C(=O)O[C@H]([C@H](C)C[C@@H]2CC[C@@H](OCCO)[C@H](OC)C2)CC(=O)[C@H](C)/C=C(\C)[C@@H](O)[C@@H](OC)C(=O)[C@H](C)C[C@H](C)/C=C/C=C/C=C/1C at 0.1 µM
VX-702: NC(=O)c1ccc(N(C(N)=O)c2c(F)cccc2F)nc1-c1ccc(F)cc1F at 2 µM
vorinostat: O=C(CCCCCCC(=O)Nc1ccccc1)NO at 0.4 µM
FK866: O=C(/C=C/c1cccnc1)NCCCCC1CCN(C(=O)c2ccccc2)CC1 at 0.05 µM
STA-4783: CN(NC(=O)CC(=O)NN(C)C(=S)c1ccccc1)C(=S)c1ccccc1 at 0.03 µM
lenalidomide: Nc1cccc2c1CN(C1CCC(=O)NC1=O)C2=O (stereo unspecified) at 5 µM
MK-1775: C=CCn1c(=O)c2cnc(Nc3ccc(N4CCN(C)CC4)cc3)nc2n1-c1cccc(C(C)(C)O)n1 at 0.1 µM
MK-2206: NC1(c2ccc(-c3nc4ccn5c(=O)[nH]nc5c4cc3-c3ccccc3)cc2)CCC1 at 2 µM
LFM-A13: C/C(O)=C(\C#N)C(=O)Nc1cc(Br)ccc1Br at 10 µM
pioglitazone: CCc1ccc(CCOc2ccc(CC3SC(=O)NC3=O)cc2)nc1 (stereo unspecified) at 10 µM
dovitinib: CN1CCN(c2ccc3nc(-c4c(N)c5c(F)cccc5[nH]c4=O)[nH]c3c2)CC1 at 0.5 µM

| # | Partner | LB2518-MEL | MZ2-MEL | COLO 792 | COLO 800 | SK-MEL-2 | SK-MEL-30 | WM451Lu | WM1745 | C32 | COLO 829 |
|---|---|---|---|---|---|---|---|---|---|---|---|
| 1 | VX-702 | 266 | 188 | 68.4 | 400 | 73.5 | 69.4 | 334 | 237 | 86.4 | 502 |
| 2 | vincristine | 123 | 227 | 169 | 468 | 54.6 | 192 | 591 | 182 | 110 | 396 |
| 3 | BI-D1870 | 70.8 | 159 | 105 | 373 | 146 | 53.0 | 893 | - | 90.4 | 218 |
| 4 | KU-0063794 | 88.1 | 99.6 | 133 | 545 | 118 | 140 | 317 | - | 176 | 631 |
| 5 | pioglitazone | 63.4 | 68.7 | 160 | 273 | 75.1 | 85.5 | 218 | - | 71.7 | 297 |
| 6 | lenalidomide | 325 | 138 | 232 | 811 | 154 | 57.4 | 613 | 213 | 198 | 211 |
| 7 | NVP-BEZ235 | 48.0 | 133 | 138 | 107 | 122 | 84.1 | 246 | 154 | 250 | 592 |
| 8 | dovitinib | - | - | 378 | 173 | 386 | 74.8 | 193 | 483 | 343 | 174 |
| 9 | KU-55933 | 452 | 165 | 70.1 | 241 | 41.1 | 41.0 | 95.8 | - | 76.9 | 399 |
| 10 | darinaparsin | 413 | 199 | 144 | 160 | 104 | 84.4 | 293 | 188 | 123 | 408 |
| 11 | FK866 | 877 | 1610 | 1700 | 130 | 3000 | 89.5 | 140 | 129 | 98.4 | 500 |
| 12 | SNS-314 | 78.2 | 323 | 175 | 823 | 66.2 | 144 | 234 | 420 | 241 | 213 |
| 13 | perifosine | 103 | 149 | 89.1 | 269 | 106 | 171 | 340 | 337 | 86.2 | 330 |
| 14 | tamatinib | 77.1 | 153 | 225 | 395 | 130 | 53.5 | 527 | 186 | 46.4 | 321 |
| 15 | lapatinib | 184 | 126 | 238 | 163 | 97.4 | 59.4 | 167 | 165 | 60.2 | 510 |
| 16 | bortezomib | 6440 | 15000 | 307 | 89.6 | 144 | 1190 | 135 | 440 | 1530 | 3000 |
| 17 | MK-2206 | 252 | 293 | 171 | 99.5 | 34.0 | 212 | 207 | 168 | 220 | 634 |
| 18 | erlotinib | - | - | 142 | 406 | 199 | 64.4 | 81.3 | 167 | 62.3 | 194 |
| 19 | enzastaurin | 72.3 | 130 | 75.5 | 105 | 99.8 | 55.2 | 48.5 | 153 | 134 | 271 |
| 20 | ABT-263 | 297 | 448 | 8450 | 562 | 181 | 509 | 1180 | 2550 | 641 | 493 |
| 21 | U73122 | 138 | 162 | 110 | 491 | 104 | 122 | 611 | - | 152 | 404 |
| 22 | etoposide | 111 | 268 | 146 | 108 | 196 | 118 | 715 | 218 | 165 | 423 |
| 23 | everolimus | 57.2 | 196 | 181 | 185 | 147 | 34.2 | 363 | 179 | 61.7 | 443 |
| 24 | MK-1775 | 80.0 | 171 | 894 | 621 | 134 | 210 | 527 | 287 | 223 | 561 |
| 25 | vatalanib | 443 | 140 | 85.8 | 192 | 53.1 | 79.3 | 249 | 237 | 99.0 | 677 |
| 26 | NVP-TAE684 | 47.2 | 134 | 359 | 219 | 60.2 | 29.6 | 1110 | - | 118 | 192 |
| 27 | PLX4720 | 101 | 89.3 | 111 | 224 | 144 | 124 | 129 | 147 | 219 | 204 |
| 28 | STA-4783 | 589 | 77.0 | 472 | 393 | 72.7 | 119 | 250 | 204 | 2020 | 321 |
| 29 | vorinostat | - | - | 178 | 785 | - | 119 | 164 | 224 | 78.6 | 261 |
| 30 | PF-04217903 | 366 | 78.5 | 177 | 355 | 127 | 74.3 | 290 | 155 | 89.2 | 449 |
| 31 | palbociclib | 95.6 | 138 | 80.5 | 17.1 | 129 | 60.8 | 146 | 148 | 73.0 | 125 |
| 32 | decitabine | 111 | 89.1 | 311 | 195 | 97.5 | 102 | 80.6 | 150 | 248 | 633 |
| 33 | LFM-A13 | 69.1 | 137 | 85.1 | 210 | 91.7 | 173 | 424 | - | 74.7 | 349 |
| 34 | L-779450 | 80.8 | 104 | 42.4 | 151 | 484 | 95.0 | 806 | - | 94.6 | 198 |
| 35 | GSK0660 | 85.9 | 136 | 119 | 169 | 126 | 102 | 513 | - | 96.9 | 206 |

For reference, 3 entries once more:

Partner,LB2518-MEL,MZ2-MEL,COLO 792,COLO 800,SK-MEL-2,SK-MEL-30,WM451Lu,WM1745,C32,COLO 829
PF-04217903,366,78.5,177,355,127,74.3,290,155,89.2,449
darinaparsin,413,199,144,160,104,84.4,293,188,123,408
lapatinib,184,126,238,163,97.4,59.4,167,165,60.2,510

Data from the primary screen of doi:10.1371/journal.pone.0140310, rounded.